Data: publication PMC9179584
These are yes or no findings as the source states them, for the method shown. In cells and extracts the contact can be indirect. Some results given as binding are weak or reduced against the parent protein; the word gives no strength.

Protein sequences, listed by entry. Tags and fused reporters are not part of them.
UniProt Q15796: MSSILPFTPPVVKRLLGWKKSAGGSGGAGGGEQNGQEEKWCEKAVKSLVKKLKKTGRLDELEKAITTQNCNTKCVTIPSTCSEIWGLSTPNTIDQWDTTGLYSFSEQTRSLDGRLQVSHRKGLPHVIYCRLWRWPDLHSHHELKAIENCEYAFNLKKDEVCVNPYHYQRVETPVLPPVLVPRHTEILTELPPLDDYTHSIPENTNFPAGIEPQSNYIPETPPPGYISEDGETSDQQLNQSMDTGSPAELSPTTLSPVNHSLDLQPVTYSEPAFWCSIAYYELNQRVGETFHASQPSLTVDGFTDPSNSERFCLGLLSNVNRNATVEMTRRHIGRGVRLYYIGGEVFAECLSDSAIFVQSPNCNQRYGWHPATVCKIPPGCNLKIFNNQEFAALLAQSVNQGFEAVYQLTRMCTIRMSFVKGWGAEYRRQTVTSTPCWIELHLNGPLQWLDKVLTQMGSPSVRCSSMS
UniProt P84022: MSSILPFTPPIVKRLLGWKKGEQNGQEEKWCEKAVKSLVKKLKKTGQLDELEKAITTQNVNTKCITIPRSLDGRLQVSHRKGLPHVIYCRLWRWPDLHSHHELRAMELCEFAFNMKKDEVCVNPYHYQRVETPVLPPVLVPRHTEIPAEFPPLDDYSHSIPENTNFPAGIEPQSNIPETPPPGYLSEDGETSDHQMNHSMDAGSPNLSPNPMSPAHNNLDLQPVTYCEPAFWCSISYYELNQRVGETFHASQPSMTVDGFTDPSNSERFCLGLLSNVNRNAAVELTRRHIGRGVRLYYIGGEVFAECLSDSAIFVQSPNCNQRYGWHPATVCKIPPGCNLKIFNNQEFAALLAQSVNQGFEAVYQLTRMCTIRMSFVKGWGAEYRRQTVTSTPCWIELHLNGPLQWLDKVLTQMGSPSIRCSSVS

Target: T1, SMAD Anchor for Receptor Activation (SARA) (human (endogenous in HT-1080)) (UniProt O95405)
T1 sequence: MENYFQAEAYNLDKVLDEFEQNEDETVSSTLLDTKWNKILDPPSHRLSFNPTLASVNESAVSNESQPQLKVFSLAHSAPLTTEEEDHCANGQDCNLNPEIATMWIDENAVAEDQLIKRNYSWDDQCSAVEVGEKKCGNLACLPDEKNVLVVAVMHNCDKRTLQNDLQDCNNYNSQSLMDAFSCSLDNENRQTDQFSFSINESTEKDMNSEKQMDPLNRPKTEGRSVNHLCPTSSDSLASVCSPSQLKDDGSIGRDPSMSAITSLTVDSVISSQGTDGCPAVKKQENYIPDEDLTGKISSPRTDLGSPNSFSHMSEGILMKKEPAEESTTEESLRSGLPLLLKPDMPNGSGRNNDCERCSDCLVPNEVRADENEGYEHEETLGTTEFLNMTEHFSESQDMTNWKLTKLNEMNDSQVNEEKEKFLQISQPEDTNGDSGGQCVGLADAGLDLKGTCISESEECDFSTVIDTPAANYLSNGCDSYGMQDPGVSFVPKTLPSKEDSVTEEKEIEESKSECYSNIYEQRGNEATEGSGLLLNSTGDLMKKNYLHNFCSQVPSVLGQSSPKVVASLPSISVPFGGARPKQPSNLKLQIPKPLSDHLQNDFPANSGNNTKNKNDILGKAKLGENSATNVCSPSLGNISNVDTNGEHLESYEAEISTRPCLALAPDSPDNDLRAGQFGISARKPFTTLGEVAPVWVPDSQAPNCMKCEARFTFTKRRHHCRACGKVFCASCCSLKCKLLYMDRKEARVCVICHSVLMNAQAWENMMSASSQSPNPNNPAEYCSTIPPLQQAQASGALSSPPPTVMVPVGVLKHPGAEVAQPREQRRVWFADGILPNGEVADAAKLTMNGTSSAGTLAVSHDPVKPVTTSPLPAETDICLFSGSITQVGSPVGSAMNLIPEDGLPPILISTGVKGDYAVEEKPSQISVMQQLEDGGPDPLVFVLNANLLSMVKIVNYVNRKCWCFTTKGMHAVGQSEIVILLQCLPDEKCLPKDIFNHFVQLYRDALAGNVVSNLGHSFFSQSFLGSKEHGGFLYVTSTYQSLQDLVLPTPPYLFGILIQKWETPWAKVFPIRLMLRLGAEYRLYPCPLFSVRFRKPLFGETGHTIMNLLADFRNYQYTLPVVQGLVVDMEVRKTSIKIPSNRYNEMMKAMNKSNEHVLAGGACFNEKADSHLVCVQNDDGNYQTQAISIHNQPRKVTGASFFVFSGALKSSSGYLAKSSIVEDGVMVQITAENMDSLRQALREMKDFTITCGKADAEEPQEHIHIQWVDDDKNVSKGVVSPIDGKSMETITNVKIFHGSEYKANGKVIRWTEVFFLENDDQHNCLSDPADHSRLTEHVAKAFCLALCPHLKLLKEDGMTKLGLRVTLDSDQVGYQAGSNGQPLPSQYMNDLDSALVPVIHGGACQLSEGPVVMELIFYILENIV
Assay: co-IP; endogenous proteins, HT-1080 cells 3 h in hypoxia (1% O2) with or without tubacin (10 µM) or CAY10603 (1 µM); NP-40 lysate, IP of SARA, protein A-agarose; SMAD3 and SMAD2 blotted

With SMAD2 (from UniProt Q15796 1-467) the binding was “binds”.

In the case of SMAD3 (from UniProt P84022 1-425), the binding is reported as “binds”.
